Assay results as given in publication PMC12087091.
Results are given in words; binding and its absence hold for the method and conditions named. Binding seen in cells or lysates may run through a third protein. Some binding calls cover weakened binding; strength is not graded here.

Amino acid sequences for entries named in this document (tags omitted). A change or cut given only in a name is not applied to a line headed by its entry.
UniProt P17174: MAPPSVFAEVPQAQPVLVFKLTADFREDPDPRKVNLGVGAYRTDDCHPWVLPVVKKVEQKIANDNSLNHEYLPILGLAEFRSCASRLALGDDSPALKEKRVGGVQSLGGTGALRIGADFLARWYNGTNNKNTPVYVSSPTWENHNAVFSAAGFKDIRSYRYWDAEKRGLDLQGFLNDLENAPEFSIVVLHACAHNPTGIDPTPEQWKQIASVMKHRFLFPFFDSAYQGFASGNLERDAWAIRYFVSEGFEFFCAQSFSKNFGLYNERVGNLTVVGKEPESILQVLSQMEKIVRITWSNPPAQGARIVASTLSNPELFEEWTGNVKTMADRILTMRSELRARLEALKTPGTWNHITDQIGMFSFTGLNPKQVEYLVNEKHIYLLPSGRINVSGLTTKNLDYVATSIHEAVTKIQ
UniProt P45974: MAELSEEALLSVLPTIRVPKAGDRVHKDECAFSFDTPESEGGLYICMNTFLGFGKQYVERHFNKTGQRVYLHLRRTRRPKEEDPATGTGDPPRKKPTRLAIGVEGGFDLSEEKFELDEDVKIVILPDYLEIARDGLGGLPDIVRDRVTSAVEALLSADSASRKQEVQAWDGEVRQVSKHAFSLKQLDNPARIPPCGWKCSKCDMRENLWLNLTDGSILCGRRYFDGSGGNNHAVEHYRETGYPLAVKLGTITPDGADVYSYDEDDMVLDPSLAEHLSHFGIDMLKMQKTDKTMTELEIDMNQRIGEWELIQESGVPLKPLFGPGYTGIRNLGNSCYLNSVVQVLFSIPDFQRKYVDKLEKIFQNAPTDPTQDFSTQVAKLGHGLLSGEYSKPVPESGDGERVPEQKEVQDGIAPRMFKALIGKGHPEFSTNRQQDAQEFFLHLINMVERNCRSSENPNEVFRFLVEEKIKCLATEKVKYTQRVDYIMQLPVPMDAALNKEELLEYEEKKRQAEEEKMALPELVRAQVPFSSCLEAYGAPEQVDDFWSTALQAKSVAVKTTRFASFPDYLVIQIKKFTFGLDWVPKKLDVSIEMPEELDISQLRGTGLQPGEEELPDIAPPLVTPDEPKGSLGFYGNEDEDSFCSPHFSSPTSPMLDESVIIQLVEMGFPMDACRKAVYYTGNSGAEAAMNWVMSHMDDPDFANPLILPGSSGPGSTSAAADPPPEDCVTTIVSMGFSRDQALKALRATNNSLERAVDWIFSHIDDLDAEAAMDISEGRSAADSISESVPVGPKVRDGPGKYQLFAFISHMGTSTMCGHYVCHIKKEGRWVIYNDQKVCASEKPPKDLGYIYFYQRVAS

How the values were obtained:
[1] = target: T1, ANXA1, exogenous in 293T cells (UniProt P04083); assay: co-IP; exogenous proteins expressed in 293T (HEK293T) cells, lysates, Western blot
T1 sequence: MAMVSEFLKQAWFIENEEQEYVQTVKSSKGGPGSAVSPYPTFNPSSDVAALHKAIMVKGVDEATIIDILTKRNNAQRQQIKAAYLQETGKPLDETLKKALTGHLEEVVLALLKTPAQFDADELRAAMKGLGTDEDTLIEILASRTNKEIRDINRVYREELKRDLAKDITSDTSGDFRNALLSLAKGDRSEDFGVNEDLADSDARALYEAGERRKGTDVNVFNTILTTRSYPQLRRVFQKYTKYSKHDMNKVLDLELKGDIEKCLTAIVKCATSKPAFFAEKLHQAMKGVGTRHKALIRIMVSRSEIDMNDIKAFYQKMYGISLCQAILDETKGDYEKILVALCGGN

Flag-GOT1 (human) = Flag-GOT1 (human) (UniProt P17174); assay: co-IP; Myc-USP5-C335A co-transfected with Flag-GOT1 in HUCCT1 cells
[2] = target: T2, Annexin A1 (ANXA1), endogenous (human (endogenous in HUCCT1 and HCCC9810)) (UniProt P04083); assay: co-IP; endogenous proteins in HUCCT1 and HCCC9810 lysates, antibody-conjugated magnetic beads, Western blot; for USP5 with GOT1: IP with anti-USP5 or anti-GOT1, cells with sh-control or sh-ANXA1, MG132 10 uM 6 h
T2 sequence: T1 sequence

[3] = target: T2, Annexin A1 (ANXA1), endogenous (human (endogenous in HUCCT1 and HCCC9810)); assay: proximity ligation; NaveniFlex Cell MR PLA on fixed, permeabilised HUCCT1 and HCCC9810 cells, pairs of primary antibodies (ANXA1-USP5, ANXA1-GOT1, USP5-GOT1), Cy3 signal by confocal microscopy; for USP5-GOT1 vector against ANXA1 overexpression
[4] = target: Glutamic-oxaloacetic transaminase 1 (GOT1), endogenous (human (endogenous in HUCCT1 and HCCC9810)) (UniProt P17174); assay: co-IP; endogenous proteins in HUCCT1 and HCCC9810 lysates, antibody-conjugated magnetic beads, Western blot; for USP5 with GOT1: IP with anti-USP5 or anti-GOT1, cells with sh-control or sh-ANXA1, MG132 10 uM 6 h
[5] = target: Glutamic-oxaloacetic transaminase 1 (GOT1), endogenous (human (endogenous in HUCCT1 and HCCC9810)) (UniProt P17174); assay: proximity ligation; NaveniFlex Cell MR PLA on fixed, permeabilised HUCCT1 and HCCC9810 cells, pairs of primary antibodies (ANXA1-USP5, ANXA1-GOT1, USP5-GOT1), Cy3 signal by confocal microscopy; for USP5-GOT1 vector against ANXA1 overexpression

USP5, exogenous in 293T cells (from UniProt P45974 1-858) (enzyme)
binding [1]: binds

Myc-USP5-C335A (from UniProt P45974 1-858) (enzyme)
binding (Flag-GOT1 (human)): no binding

Glutamic-oxaloacetic transaminase 1 (GOT1), endogenous (from UniProt P17174 1-413) (enzyme)
binding [2]: binds | binding [3]: binds

GOT1, exogenous in 293T cells (from UniProt P17174 1-413) (enzyme)
binding [1]: binds

Ubiquitin-specific protease 5 (USP5), endogenous (from UniProt P45974 1-858) (enzyme)
binding [4]: binds | binding [2]: binds | binding [5]: binds | binding [3]: binds
